In article PMC4931344:
No constants are given. Whether binding was seen depends on the method and setting. In cells and extracts the contact can be indirect. Some binding calls cover weakened binding; strength is not graded here. For some of these results: Where a sequence is shown, tags or fusion partners need not be part of it.

T1: FLAG–FLCN (amino-terminally FLAG-tagged folliculin) (UniProt Q8NFG4)
T1 sequence: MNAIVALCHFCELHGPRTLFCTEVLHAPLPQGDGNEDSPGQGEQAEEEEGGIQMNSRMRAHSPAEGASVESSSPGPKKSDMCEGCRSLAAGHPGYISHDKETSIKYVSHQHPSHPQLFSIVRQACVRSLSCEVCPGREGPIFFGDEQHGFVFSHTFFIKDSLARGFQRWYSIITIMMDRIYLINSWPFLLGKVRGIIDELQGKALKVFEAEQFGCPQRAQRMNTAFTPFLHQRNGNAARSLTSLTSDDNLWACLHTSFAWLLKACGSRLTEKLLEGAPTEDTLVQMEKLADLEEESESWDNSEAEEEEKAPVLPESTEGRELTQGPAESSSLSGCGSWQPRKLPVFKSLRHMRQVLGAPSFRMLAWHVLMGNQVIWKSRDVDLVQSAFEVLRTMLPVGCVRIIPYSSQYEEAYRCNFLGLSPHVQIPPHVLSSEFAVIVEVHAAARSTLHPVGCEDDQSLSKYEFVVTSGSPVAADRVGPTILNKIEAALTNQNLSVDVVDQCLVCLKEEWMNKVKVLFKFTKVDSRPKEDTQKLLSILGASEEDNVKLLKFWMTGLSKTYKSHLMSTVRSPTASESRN

T2: endogenous FLCN (folliculin) (human (endogenous in HEK293)) (UniProt Q8NFG4)
T2 sequence: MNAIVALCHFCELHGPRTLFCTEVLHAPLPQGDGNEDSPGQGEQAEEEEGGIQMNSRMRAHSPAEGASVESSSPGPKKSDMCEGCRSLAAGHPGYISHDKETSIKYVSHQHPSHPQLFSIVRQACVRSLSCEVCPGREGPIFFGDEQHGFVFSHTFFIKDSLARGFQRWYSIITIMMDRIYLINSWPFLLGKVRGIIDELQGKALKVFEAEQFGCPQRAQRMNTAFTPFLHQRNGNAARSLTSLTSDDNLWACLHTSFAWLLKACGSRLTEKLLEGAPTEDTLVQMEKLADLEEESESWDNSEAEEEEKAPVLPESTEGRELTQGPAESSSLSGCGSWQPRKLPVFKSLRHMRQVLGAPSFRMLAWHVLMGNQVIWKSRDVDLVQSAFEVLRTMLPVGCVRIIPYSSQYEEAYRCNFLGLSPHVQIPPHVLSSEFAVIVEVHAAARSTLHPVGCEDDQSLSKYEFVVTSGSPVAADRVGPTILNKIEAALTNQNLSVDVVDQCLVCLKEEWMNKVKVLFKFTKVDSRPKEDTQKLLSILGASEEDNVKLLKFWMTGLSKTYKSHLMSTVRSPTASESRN


Key:
[1] = biological target: T1, FLAG–FLCN (amino-terminally FLAG-tagged folliculin); test: co-IP; FLAG–FLCN (empty vector control) immunoprecipitated from HEK293, immunoblot
[2] = biological target: T2, endogenous FLCN (folliculin) (human (endogenous in HEK293)); test: co-IP; endogenous FLCN isolated from HEK293 lysates with anti-FLCN (IgG control), immunoblot

| Binder | binding [1] | binding [2] |
| --- | --- | --- |
| CCT2, endogenous (protein, UniProt P78371 1-535) MASLSLAPVNIFKAGADEERAETARLTSFIGAIAIGDLVKSTLGPKGMDKILLSSGRDASLMVTNDGATILKNIGVDNPAAKVLVDMSRVQDDEVGDGTTSVTVLAAELLREAESLIAKKIHPQTIIAGWREATKAAREALLSSAVDHGSDEVKFRQDLMNIAGTTLSSKLLTHHKDHFTKLAVEAVLRLKGSGNLEAIHIIKKLGGSLADSYLDEGFLLDKKIGVNQPKRIENAKILIANTGMDTDKIKIFGSRVRVDSTAKVAEIEHAEKEKMKEKVERILKHGINCFINRQLIYNYPEQLFGAAGVMAIEHADFAGVERLALVTGGEIASTFDHPELVKLGSCKLIEEVMIGEDKLIHFSGVALGEACTIVLRGATQQILDEAERSLHDALCVLAQTVKDSRTVYGGGCSEMLMAHAVTQLANRTPGKEAVAMESYAKALRMLPTIIADNAGYDSADLVAQLRAAHSEGNTTAGLDMREGTIGDMAILGITESFQVKRQVLLSAAEAAEVILRVDNIIKAAPRKRVPDHHPC | binds | binds |
| PP5, endogenous (protein, UniProt P53041 1-499) MAMAEGERTECAEPPRDEPPADGALKRAEELKTQANDYFKAKDYENAIKFYSQAIELNPSNAIYYGNRSLAYLRTECYGYALGDATRAIELDKKYIKGYYRRAASNMALGKFRAALRDYETVVKVKPHDKDAKMKYQECNKIVKQKAFERAIAGDEHKRSVVDSLDIESMTIEDEYSGPKLEDGKVTISFMKELMQWYKDQKKLHRKCAYQILVQVKEVLSKLSTLVETTLKETEKITVCGDTHGQFYDLLNIFELNGLPSETNPYIFNGDFVDRGSFSVEVILTLFGFKLLYPDHFHLLRGNHETDNMNQIYGFEGEVKAKYTAQMYELFSEVFEWLPLAQCINGKVLIMHGGLFSEDGVTLDDIRKIERNRQPPDSGPMCDLLWSDPQPQNGRSISKRGVSCQFGPDVTKAFLEENNLDYIIRSHEVKAEGYEVAHGGRCVTVFSAPNYCDQMGNKASYIHLQGSDLRPQFHQFTAVPHPNVKPMAYANTLLQLGMM | binds | binds |
